Among the data in article PMC7949049 (The Journal of Biological Chemistry, 2020) are binding values, retold here.

Protein sequences, listed by entry. Tags and fused reporters are not part of them.
UniProt Q96KP1: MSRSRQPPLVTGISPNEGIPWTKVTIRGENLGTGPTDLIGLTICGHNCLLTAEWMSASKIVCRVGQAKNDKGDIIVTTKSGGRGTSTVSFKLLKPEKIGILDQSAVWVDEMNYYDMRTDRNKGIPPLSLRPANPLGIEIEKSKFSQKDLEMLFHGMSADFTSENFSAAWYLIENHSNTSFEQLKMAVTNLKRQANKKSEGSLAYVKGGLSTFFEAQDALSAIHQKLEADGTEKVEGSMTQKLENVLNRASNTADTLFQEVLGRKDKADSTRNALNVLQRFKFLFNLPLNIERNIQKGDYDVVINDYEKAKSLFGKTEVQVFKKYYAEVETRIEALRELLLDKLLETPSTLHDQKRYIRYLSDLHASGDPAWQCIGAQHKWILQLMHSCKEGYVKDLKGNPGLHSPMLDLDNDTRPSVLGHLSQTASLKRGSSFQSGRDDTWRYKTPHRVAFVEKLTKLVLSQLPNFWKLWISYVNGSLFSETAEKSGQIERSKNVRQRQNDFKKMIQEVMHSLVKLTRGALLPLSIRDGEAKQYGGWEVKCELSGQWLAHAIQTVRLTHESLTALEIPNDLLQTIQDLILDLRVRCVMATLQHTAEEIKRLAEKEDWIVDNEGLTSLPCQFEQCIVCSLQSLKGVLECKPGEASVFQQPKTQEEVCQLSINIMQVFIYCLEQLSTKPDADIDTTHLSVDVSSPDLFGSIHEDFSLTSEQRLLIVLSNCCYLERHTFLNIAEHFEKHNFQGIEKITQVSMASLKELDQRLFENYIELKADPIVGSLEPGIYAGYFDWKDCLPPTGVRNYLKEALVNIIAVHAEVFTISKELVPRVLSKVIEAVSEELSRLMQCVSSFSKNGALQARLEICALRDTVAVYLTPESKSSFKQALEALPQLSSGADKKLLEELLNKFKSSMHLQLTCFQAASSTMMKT

Results are given in words; binding and its absence hold for the method and conditions named. In cells and extracts the contact can be indirect. Some entries that bind do so weakly or less than the wild type. Tags and fused reporters may be left off the sequences shown.

This test deals with T1, V5-tagged, constitutively active (Q72L) RalB (UniProt P11234).
T1 sequence: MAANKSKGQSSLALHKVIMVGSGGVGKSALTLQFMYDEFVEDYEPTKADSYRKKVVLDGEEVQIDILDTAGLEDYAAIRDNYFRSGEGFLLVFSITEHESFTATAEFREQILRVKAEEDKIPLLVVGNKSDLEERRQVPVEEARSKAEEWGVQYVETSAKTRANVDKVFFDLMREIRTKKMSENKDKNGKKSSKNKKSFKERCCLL
Kind of test: co-IP; HEK293T lysate; V5-RalB Q72L precipitated on anti-V5 Protein G Dynabeads, blots for flag-RLIP76 or endogenous Sec5; 1 h, 4 °C.

With “endogenous Sec5 (from UniProt Q96KP1 1-924)”, the binding entry is listed as “binds”.
